PubChem BioAssay AID1259425 | University of Nebraska Medical Center – 2018

Assay: 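Find knockdowns that reproduce the gene expression pattern seen when KSR1 is lost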 (primary screen)
Cells: HCT116 human colon cancer cells
Knock-down reagent: siRNA pool against human genes, 50 nM siRNA
Detection: 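After 50 nM siRNA pool, branched-DNA assay measures six marker transcripts per well, minus blank, normalised to the geometric mean of two housekeeping transcripts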
Direction: BNIP3L mRNA: higher = more BNIP3L transcript after knockdown; NDRG1 mRNA: higher = more NDRG1 transcript after knockdown
This is one part, drawn at random, of about 14,000 deposited reagents. Not all columns of the deposit are shown. Not given: the time to read-out.

| BNIP3L mRNA, set 1 | NDRG1 mRNA, set 1 | gene knocked down |
| --- | --- | --- |
| 0.216 | 0.267 | NPY |
| 0.163 | 0.226 | SOCS5 |
| 0.158 | 2 | TMED10 |
| 0.166 | 0.128 | ALDH9A1 |
| 0.0998 | 0.15 | KLK1 |
| 0.0952 | 0.0841 | MSRB2 |
| 0.0986 | 0.187 | TEAD4 |
| 0.0721 | 0.0852 | VEZF1 |
| 0.188 | 0.345 | TTLL3 |
| 0.115 | 0.164 | FOLR2 |
| 0.0788 | 0.223 | REXO2 |
| 0.136 | 0.232 | TBC1D4 |
| 0.168 | 0.414 | CYTH4 |
| 0.22 | 0.298 | SLC10A7 |
| 0.0578 | 0.552 | VMP1 |
| 0.154 | 0.0719 | VIP |
| 0.125 | 0.139 | GJA8 |
| 0.083 | 0.356 | HIP1 |
| 0.06 | 0.233 | AGL |
| 0.0435 | 0.173 | CLEC4M |
| 0.0873 | 0.1 | ZC3H7A |
| 0.125 | 0.0812 | CDR2L |
| 0.127 | 0.163 | TTPA |
| 0.146 | 0.166 | S100A12 |
| 0.14 | 0.425 | MYBPH |
| 0.122 | 0.653 | KIF12 |
| 0.091 | 0.0758 | TXNRD3 |
| 0.0957 | 0.145 | GPX1 |
| 0.0957 | 0.414 | WDR74 |
| 0.0939 | 0.251 | PPL |
| 0.147 | 0.623 | GCNT3 |
| 0.123 | 0.368 | SECTM1 |
| 0.149 | 0.395 | AHI1 |
| 0.112 | 0.098 | KIAA1586 |
| 0.101 | 0.502 | SPATS2L |
| 0.215 | 0.0817 | PLAC8 |
| 0.141 | 0.128 | IL6R |
| 0.22 | 0.213 | SF1 |
| 0.221 | 0.428 | WDR75 |
| 0.129 | 0.257 | MANBA |
| 0.0574 | 0.467 | GTF2H2 |
| 0.226 | 0.119 | ZNF407 |
| 0.147 | 0.111 | POLR3GL |
| 0.174 | 0.065 | ITLN1 |
| 0.307 | 0.672 | ZC2HC1A |
| 0.197 | 0.139 | PRKCA |
| 0.0616 | 0.155 | IL5RA |
| 0.155 | 0.152 | TOMM70 |
| 0.176 | 0.244 | DNASE1L1 |
| 0.126 | 0.153 | BLMH |

2 successive records already listed:
| BNIP3L mRNA, set 1 | NDRG1 mRNA, set 1 | gene knocked down |
| --- | --- | --- |
| 0.0986 | 0.187 | TEAD4 |
| 0.0721 | 0.0852 | VEZF1 |
